Measurements published in the M2OR odorant receptor database.
The entries are a selection whose mix differs from that of the whole data set. Calls are pooled over several reports, among them a noisy single-well screen. The list shows a part of the results.

Experiments:
Conditions in all cases: stereoisomer not certain
[1] = test system: T1, OR5B2
T1 sequence (whole entry): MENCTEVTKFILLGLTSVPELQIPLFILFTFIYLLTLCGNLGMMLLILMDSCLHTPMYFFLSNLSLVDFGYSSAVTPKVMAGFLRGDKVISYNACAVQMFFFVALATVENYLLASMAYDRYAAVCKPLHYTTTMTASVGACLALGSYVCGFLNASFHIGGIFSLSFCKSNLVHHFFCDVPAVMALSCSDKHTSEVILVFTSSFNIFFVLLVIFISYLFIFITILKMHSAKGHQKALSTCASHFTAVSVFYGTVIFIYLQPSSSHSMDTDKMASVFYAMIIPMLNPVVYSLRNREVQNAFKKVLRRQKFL
In short: (§1)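 Transient luciferase assays in mammalian cell lines were common, though methods varied by source. The values come from published papers and their supplementary material, with extra details from the original authors when needed. Responsive refers to a measured signal the original authors judged statistically different from baseline, and non-responsive (inactive) to the remainder.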

[2] = target: T2, OR5B3 (Homo sapiens) (UniProt Q8NH48)
T2 sequence (whole entry): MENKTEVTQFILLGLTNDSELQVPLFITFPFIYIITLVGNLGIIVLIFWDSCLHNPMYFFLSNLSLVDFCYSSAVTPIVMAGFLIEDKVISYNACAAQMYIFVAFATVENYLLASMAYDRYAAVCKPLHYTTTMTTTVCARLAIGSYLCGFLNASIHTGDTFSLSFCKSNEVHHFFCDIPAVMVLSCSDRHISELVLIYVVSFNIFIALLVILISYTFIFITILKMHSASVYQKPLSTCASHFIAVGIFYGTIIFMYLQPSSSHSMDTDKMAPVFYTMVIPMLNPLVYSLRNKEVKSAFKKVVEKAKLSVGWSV
In short: as §1

[3] = test system: T3, OR5BC
T3 sequence (whole entry): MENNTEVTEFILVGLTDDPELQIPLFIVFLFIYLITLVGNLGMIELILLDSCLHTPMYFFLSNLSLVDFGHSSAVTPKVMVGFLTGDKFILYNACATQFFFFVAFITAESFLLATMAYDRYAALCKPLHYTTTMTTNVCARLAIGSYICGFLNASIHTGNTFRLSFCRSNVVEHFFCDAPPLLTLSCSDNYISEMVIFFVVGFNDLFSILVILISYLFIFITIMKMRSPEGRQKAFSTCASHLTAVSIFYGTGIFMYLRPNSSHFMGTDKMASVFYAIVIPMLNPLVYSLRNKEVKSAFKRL
In short: as §1

[4] = test system: T4, OR5BL
T4 sequence (whole entry): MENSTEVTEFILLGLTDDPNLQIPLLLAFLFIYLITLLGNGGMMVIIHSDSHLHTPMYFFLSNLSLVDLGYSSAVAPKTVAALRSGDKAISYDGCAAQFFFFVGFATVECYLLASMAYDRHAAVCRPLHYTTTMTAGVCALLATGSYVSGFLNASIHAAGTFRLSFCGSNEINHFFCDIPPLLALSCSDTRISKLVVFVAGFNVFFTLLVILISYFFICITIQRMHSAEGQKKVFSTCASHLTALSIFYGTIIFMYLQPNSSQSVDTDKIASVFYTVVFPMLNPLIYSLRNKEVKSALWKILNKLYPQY
In short: as §1

[5] = target: T5, OR5C1 (Homo sapiens) (UniProt Q8NGR4)
T5 sequence (whole entry): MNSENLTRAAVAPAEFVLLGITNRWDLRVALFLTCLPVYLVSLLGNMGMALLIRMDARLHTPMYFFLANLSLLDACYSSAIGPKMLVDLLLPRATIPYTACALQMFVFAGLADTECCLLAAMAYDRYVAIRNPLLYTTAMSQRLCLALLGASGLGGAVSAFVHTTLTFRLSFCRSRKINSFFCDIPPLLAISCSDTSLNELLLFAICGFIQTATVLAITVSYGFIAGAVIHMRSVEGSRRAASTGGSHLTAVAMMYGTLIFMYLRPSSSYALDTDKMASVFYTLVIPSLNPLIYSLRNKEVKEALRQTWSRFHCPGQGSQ
In short: as §1

[6] = test system: T6, OR5DD
T6 sequence (whole entry): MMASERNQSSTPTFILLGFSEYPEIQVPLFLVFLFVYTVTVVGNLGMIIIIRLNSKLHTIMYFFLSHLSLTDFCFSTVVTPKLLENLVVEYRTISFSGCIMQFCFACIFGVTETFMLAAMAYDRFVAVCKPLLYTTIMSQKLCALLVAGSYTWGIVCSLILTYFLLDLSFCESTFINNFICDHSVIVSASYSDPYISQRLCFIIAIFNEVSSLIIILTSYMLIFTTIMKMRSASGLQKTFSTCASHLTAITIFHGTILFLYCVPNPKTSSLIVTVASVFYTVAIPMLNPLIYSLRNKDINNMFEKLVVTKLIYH
In short: as §1

[7] = test system: T7, OR5DE
T7 sequence (whole entry): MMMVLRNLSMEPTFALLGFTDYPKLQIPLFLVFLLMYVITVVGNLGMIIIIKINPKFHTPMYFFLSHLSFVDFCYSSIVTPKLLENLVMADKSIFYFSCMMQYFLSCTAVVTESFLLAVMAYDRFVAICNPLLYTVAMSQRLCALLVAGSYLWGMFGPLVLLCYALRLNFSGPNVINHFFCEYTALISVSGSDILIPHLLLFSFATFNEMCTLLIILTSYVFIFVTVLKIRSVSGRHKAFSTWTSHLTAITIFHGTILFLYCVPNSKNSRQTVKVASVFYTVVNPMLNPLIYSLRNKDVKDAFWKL
In short: as §1

[8] = test system: T8, OR5DG
T8 sequence (whole entry): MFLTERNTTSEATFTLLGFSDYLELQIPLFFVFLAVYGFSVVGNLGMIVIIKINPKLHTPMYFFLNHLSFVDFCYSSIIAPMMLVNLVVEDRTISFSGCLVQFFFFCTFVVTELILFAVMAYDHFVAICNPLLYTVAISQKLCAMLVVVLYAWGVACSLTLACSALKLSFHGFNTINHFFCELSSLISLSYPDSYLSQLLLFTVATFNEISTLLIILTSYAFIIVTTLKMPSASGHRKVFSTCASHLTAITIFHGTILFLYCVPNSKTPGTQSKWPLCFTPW
In short: as §1

[9] = test system: T9, OR5DI
T9 sequence (whole entry): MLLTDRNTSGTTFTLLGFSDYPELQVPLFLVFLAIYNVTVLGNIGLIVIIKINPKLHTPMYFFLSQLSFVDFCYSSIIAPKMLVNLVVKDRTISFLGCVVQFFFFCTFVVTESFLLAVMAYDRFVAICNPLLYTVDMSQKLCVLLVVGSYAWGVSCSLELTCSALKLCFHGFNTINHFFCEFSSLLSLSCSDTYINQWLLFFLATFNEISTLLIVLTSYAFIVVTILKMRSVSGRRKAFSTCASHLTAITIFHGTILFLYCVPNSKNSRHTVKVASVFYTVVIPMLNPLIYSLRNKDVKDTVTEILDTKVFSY
In short: as §1

[10] = test system: T10, OR5F1
T10 sequence (whole entry): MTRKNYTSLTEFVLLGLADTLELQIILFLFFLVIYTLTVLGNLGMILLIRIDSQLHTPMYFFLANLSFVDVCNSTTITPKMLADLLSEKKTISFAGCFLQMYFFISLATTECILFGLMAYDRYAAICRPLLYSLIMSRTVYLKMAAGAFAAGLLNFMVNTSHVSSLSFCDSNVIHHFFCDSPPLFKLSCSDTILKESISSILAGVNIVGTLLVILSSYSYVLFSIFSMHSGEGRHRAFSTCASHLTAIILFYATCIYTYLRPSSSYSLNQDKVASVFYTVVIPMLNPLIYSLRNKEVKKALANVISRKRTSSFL
In short: as §1

[11] = target: T11, OR5H1 (Homo sapiens) (UniProt A6NKK0)
T11 sequence (whole entry): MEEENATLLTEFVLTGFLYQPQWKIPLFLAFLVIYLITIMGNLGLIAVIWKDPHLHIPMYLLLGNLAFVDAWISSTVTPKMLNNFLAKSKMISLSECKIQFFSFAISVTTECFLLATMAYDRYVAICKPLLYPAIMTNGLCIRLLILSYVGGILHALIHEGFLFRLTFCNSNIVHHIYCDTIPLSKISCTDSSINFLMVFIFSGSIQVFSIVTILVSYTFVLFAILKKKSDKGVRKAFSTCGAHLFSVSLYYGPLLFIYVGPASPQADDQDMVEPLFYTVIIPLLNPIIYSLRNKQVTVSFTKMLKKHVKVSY
In short: as §1

[12] = target: OR5D13 (Homo sapiens) (UniProt Q8NGL4)
In short: as §1

[13] = target: OR5D14 (Homo sapiens) (UniProt Q8NGL3)
In short: as §1

[14] = target: OR5D18 (Homo sapiens) (UniProt Q8NGL1)
In short: as §1

[15] = target: OR5F1 (Homo sapiens) (UniProt O95221)
In short: as §1

[16] = target: OR5H14 (Homo sapiens) (UniProt A6NHG9)
In short: as §1

Measured: odorant receptor agonist call

C=CCc1ccc(OC)c(OC)c1
not listed: [12] | [13] | [14] | [15] | [16]
inactive: all other assays above

CC(=O)c1ccccc1
inactive: [1] | [2] | [4] | [5] | [6] | [8] | [9] | [10] | [11]

CC12C=CCC1C1CCC3=CC(=O)CCC3(C)C1CC2 (centres undefined)
not listed: [12] | [13] | [14] | [15] | [16]
inactive: all other assays above

CC(=O)OC1CC2CCC1(C)C2(C)C (centres undefined)
not listed: [12] | [13] | [14] | [15] | [16]
inactive: all other assays above

CC(C)C(=O)O
not listed: [12] | [13] | [14] | [15] | [16]
inactive: all other assays above

CC12CCC(CC1)C(C)(C)O2
not listed: [12] | [13] | [14] | [15] | [16]
inactive: all other assays above

CC12C=CCC1C1CCC3CC(=O)CCC3(C)C1CC2 (centres undefined)
active: [6] | [7] | [9] | [10]
not listed: [2]
inactive: all other assays above

CC1=NC(C)SC1C (centres undefined)
inactive: [1] | [2] | [4] | [5] | [6] | [8] | [9] | [10] | [11]

COc1cc(C)ccc1O
not listed: [12] | [13] | [14] | [15] | [16]
inactive: all other assays above

CC1=CCC(C(C)(C)O)CC1 (centres undefined)
not listed: [12] | [13] | [14] | [15] | [16]
inactive: all other assays above

COC(=O)c1ccccc1
inactive: [1] | [2] | [4] | [5] | [6] | [8] | [9] | [10] | [11]

O=CCc1ccccc1
not listed: [12] | [13] | [14] | [15] | [16]
inactive: all other assays above

CCCCCC(C)=O
inactive: [1] | [2] | [4] | [5] | [6] | [8] | [9] | [10] | [11]
